The results in this text go back to article PMC8546722.

By UniProt entry, the sequences of proteins in these tests, tags left out.
UniProt O06942: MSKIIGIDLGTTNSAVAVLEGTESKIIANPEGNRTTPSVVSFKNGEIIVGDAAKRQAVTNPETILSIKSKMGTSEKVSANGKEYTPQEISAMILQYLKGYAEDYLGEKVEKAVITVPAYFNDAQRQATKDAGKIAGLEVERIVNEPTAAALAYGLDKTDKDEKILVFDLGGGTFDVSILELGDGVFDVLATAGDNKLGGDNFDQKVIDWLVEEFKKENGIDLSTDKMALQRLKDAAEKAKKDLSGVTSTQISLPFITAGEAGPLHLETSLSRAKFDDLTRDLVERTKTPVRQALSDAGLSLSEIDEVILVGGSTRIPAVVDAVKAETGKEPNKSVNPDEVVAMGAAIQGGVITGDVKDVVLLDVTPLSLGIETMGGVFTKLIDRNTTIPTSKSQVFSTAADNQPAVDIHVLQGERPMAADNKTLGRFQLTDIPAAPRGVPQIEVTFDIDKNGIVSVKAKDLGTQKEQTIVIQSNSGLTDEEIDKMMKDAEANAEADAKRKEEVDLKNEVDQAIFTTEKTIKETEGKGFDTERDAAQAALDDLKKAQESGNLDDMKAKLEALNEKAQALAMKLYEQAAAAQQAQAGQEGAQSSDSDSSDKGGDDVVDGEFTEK

In test [1] the target is T1, Ffh (two-hybrid fusion) (Streptococcus mutans) (UniProt Q54431).
T1 sequence: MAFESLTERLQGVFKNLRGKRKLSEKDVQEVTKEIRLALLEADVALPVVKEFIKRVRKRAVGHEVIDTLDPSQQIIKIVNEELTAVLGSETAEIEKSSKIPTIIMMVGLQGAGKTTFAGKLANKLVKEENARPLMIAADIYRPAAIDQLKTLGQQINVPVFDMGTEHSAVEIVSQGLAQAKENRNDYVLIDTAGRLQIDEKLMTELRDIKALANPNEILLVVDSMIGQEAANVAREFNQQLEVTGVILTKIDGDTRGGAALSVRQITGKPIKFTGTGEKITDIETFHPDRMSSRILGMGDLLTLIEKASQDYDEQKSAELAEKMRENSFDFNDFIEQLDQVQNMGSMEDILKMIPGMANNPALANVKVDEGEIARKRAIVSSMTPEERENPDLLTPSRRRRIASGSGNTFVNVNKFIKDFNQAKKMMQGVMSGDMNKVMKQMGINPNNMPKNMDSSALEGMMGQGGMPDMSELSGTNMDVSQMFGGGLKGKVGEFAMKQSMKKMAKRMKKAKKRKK
Put plainly: two-hybrid.

The target in test [2] is T2, T25-YidC1 (full-length YidC1, two-hybrid fusion) (Streptococcus mutans) (UniProt Q8DVX3).
T2 sequence: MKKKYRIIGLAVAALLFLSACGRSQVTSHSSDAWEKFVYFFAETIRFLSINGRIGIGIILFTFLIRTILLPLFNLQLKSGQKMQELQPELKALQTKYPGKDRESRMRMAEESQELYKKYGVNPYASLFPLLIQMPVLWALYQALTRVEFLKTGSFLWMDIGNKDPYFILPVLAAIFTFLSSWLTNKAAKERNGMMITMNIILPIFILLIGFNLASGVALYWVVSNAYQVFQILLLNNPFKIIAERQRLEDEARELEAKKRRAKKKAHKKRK
Put plainly: two-hybrid; bacterial two-hybrid (BACTH): T25 (pKT25) and T18 (pUT18C) fusions cotransformed in E. coli cya mutant BTH101; blue colour on LB agar with X-gal and 0.5 mM IPTG, 48 h at 30°C.

In test [3] the target is T3, T25-YidC2 (full-length YidC2, two-hybrid fusion) (Streptococcus mutans) (UniProt Q8DSP8).
T3 sequence: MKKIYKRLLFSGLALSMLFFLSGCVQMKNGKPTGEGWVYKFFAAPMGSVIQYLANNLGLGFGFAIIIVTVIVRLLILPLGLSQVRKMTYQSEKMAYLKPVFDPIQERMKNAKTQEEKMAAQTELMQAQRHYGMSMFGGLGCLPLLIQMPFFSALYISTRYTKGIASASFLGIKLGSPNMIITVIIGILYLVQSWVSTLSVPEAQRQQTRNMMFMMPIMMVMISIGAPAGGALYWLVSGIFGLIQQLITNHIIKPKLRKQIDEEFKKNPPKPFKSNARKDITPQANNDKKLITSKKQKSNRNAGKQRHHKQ
The test is described as above.

For test [4], the target named is YidC1 C-terminal tail (two-hybrid fusion) (Streptococcus mutans) (UniProt Q8DVX3). The experiment in a line: two-hybrid.
The target in test [5] is YidC2 C-terminal tail (two-hybrid fusion) (Streptococcus mutans) (UniProt Q8DSP8). Put plainly: two-hybrid.
Test [6] addresses T2, T25-YidC1 (full-length YidC1, two-hybrid fusion) (Streptococcus mutans). Put plainly: two-hybrid.
In test [7] the target is YidC1 C-terminal tail (two-hybrid fusion) (Streptococcus mutans) (UniProt Q8DVX3). Put plainly: two-hybrid; bacterial two-hybrid (BACTH): T25 (pKT25) and T18 (pUT18C) fusions cotransformed in E. coli cya mutant BTH101; blue colour on LB agar with X-gal and 0.5 mM IPTG, 48 h at 30°C.
The target in test [8] is YidC2 C-terminal tail (two-hybrid fusion) (Streptococcus mutans) (UniProt Q8DSP8). The description is as above.
The target of test [9] is YidC1 C-terminal tail (two-hybrid fusion) (Streptococcus mutans) (UniProt Q8DVX3). The description is as above. The source holds these as a separate data set.
Test [10] deals with YidC2 C-terminal tail (two-hybrid fusion) (Streptococcus mutans) (UniProt Q8DSP8). The description is as above. This is another data set of the same source.
Test [11] addresses YidC2 C-terminal tail (two-hybrid fusion) (Streptococcus mutans), Q8DSP8. Described as above. The settings on record: remark: other sources report otherwise.

No constants are given. Whether binding was seen depends on the method and setting. For some of these results: Binding can be weak; no strength is given. For some of these results: Sequences can lack the tags named with a protein.

Take “SecG (two-hybrid fusion) (Streptococcus mutans)”: the binding result in test [1] is listed as “binds”.

With “ribosomal protein L2 (two-hybrid fusion) (Streptococcus mutans)”, the binding entry in [2] and in test [3] was “no binding” in each case. For the molecule “T18C-LemA (two-hybrid fusion) (from UniProt Q93D94 1-186)”, the binding entry in [4] and in [5] was “binds” in each case. As to “RopA (trigger factor) (two-hybrid fusion) (Streptococcus mutans)”, the binding result in test [6] and in test [3] was “binds” each time.

Regarding “YajC (two-hybrid fusion) (from UniProt Q8DSJ6)”, in test [1], the binding entry is “binds”. “DnaK (two-hybrid fusion) (from UniProt O06942 1-612)”: the binding entry in test [7] and in [8] was “binds” throughout.

B1: FtsY (two-hybrid fusion) (protein, UniProt Q8CWX8 1-498)
chain: MGLFNRLFGKKRQEEKSTTDSIEEAAEQEVTQEKPALLAETAETAESQQSVYEKDVTESQAEQVSDARIIEDGQNSKEPAASGHSVQEHKQQPVQHQQEVFHSENSVAAVQNNTETMPSQQKKDEKPNQSPDFMAEYYARKAELAQKVESQKPAETAEQESQTTLSDQKETETAVNQSEEEASSQIAESVESEEEKYNRSLKKTRTGFGARLNAFLANFRNVDEEFFEDLEEMLILSDVGVQVASTLTEDLRYEAKLEKAKKPEALRRVIIEKLVDIYDKDGQFNEKINFQNDLTVMLFVGVNGVGKTTSIGKLAYKYKHQGKKVMLVAADTFRAGAVAQLAEWGRRVDVPVVTGPKNADPASVVYDGVERAVAADVDILMIDTAGRLQNKDNLMAELEKIGRVVKRVIPDAPHETLLTLDASTGQNALVQAKEFSKITPLTGLILTKIDGTAKGGVVLAIRQELAIPVKFIGFGEKIDDIGEFHSEDFMRGLLEGLL
For B1, the binding entry in [9] and in test [10] was “binds” each time.

B2: Ffh (two-hybrid fusion), Q54431 1-516 (protein)
chain: MAFESLTERLQGVFKNLRGKRKLSEKDVQEVTKEIRLALLEADVALPVVKEFIKRVRKRAVGHEVIDTLDPSQQIIKIVNEELTAVLGSETAEIEKSSKIPTIIMMVGLQGAGKTTFAGKLANKLVKEENARPLMIAADIYRPAAIDQLKTLGQQINVPVFDMGTEHSAVEIVSQGLAQAKENRNDYVLIDTAGRLQIDEKLMTELRDIKALANPNEILLVVDSMIGQEAANVAREFNQQLEVTGVILTKIDGDTRGGAALSVRQITGKPIKFTGTGEKITDIETFHPDRMSSRILGMGDLLTLIEKASQDYDEQKSAELAEKMRENSFDFNDFIEQLDQVQNMGSMEDILKMIPGMANNPALANVKVDEGEIARKRAIVSSMTPEERENPDLLTPSRRRRIASGSGNTFVNVNKFIKDFNQAKKMMQGVMSGDMNKVMKQMGINPNNMPKNMDSSALEGMMGQGGMPDMSELSGTNMDVSQMFGGGLKGKVGEFAMKQSMKKMAKRMKKAKKRKK
For B2, the binding result in test [11] was “no binding”.
